Three molecules from publication PMC6599078 can be followed below.

The chains behind the UniProt entries cited, without tags or fusion partners.
UniProt P54252: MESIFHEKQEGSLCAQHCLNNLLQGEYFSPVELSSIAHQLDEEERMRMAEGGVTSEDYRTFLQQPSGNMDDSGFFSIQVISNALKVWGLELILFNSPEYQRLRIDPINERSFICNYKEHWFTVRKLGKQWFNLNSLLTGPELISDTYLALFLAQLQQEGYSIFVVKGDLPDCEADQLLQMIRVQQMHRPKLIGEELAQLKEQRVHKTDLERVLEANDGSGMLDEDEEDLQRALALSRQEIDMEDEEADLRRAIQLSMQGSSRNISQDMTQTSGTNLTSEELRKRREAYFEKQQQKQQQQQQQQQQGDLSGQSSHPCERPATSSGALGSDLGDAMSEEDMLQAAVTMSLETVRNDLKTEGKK

For assay [1], the target named is T1, TSPAN8 (immunoprecipitated for mass spectrometry and for the co-immunoprecipitation with ATXN3) (UniProt P19075).
T1 sequence: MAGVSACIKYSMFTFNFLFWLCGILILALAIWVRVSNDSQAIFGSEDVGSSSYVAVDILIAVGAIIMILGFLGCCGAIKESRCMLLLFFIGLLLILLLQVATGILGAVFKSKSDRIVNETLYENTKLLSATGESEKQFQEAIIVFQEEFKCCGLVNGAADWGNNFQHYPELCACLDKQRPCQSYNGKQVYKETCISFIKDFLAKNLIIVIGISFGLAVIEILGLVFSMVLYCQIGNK
In words: co-IP; co-immunoprecipitation of TSPAN8 and ATXN3 (Supplementary Fig. 4g-h); constructs and cells not stated.

For assay [2], the target named is T2, endogenous TSPAN8 (human (endogenous in MCF7)) (UniProt P19075).
T2 sequence: T1 sequence
Briefly: co-IP; MCF7 cell lysates immunoprecipitated with control rabbit IgG or anti-TSPAN8, immunoblotted with anti-SHH or anti-PTCH1; endogenous proteins. On the technique in general: A western blot detects proteins with antibodies after separation by electrophoresis.

Assay [3] addresses GST-ATXN3 (UniProt P54252). In words: pull-down; GST pulldown with purified GST-ATXN3 and His-TSPAN8 or His-PTCH1 (Supplementary Fig. 4i); both purified.

These are yes or no findings as the source states them, for the method shown. For part of these data: In cells and extracts the contact can be indirect. Some binding calls cover weakened binding; strength is not graded here. For part of these data: Where a sequence is shown, tags or fusion partners need not be part of it.

For the molecule “ATXN3 (found with immunoprecipitated TSPAN8) (from UniProt P54252 1-361) (enzyme)”, in assay [1], the binding result is recorded as “binds”.

B1: endogenous PTCH1 (receptor, UniProt Q13635 1-1447)
chain: MASAGNAAEPQDRGGGGSGCIGAPGRPAGGGRRRRTGGLRRAAAPDRDYLHRPSYCDAAFALEQISKGKATGRKAPLWLRAKFQRLLFKLGCYIQKNCGKFLVVGLLIFGAFAVGLKAANLETNVEELWVEVGGRVSRELNYTRQKIGEEAMFNPQLMIQTPKEEGANVLTTEALLQHLDSALQASRVHVYMYNRQWKLEHLCYKSGELITETGYMDQIIEYLYPCLIITPLDCFWEGAKLQSGTAYLLGKPPLRWTNFDPLEFLEELKKINYQVDSWEEMLNKAEVGHGYMDRPCLNPADPDCPATAPNKNSTKPLDMALVLNGGCHGLSRKYMHWQEELIVGGTVKNSTGKLVSAHALQTMFQLMTPKQMYEHFKGYEYVSHINWNEDKAAAILEAWQRTYVEVVHQSVAQNSTQKVLSFTTTTLDDILKSFSDVSVIRVASGYLLMLAYACLTMLRWDCSKSQGAVGLAGVLLVALSVAAGLGLCSLIGISFNAATTQVLPFLALGVGVDDVFLLAHAFSETGQNKRIPFEDRTGECLKRTGASVALTSISNVTAFFMAALIPIPALRAFSLQAAVVVVFNFAMVLLIFPAILSMDLYRREDRRLDIFCCFTSPCVSRVIQVEPQAYTDTHDNTRYSPPPPYSSHSFAHETQITMQSTVQLRTEYDPHTHVYYTTAEPRSEISVQPVTVTQDTLSCQSPESTSSTRDLLSQFSDSSLHCLEPPCTKWTLSSFAEKHYAPFLLKPKAKVVVIFLFLGLLGVSLYGTTRVRDGLDLTDIVPRETREYDFIAAQFKYFSFYNMYIVTQKADYPNIQHLLYDLHRSFSNVKYVMLEENKQLPKMWLHYFRDWLQGLQDAFDSDWETGKIMPNNYKNGSDDGVLAYKLLVQTGSRDKPIDISQLTKQRLVDADGIINPSAFYIYLTAWVSNDPVAYAASQANIRPHRPEWVHDKADYMPETRLRIPAAEPIEYAQFPFYLNGLRDTSDFVEAIEKVRTICSNYTSLGLSSYPNGYPFLFWEQYIGLRHWLLLFISVVLACTFLVCAVFLLNPWTAGIIVMVLALMTVELFGMMGLIGIKLSAVPVVILIASVGIGVEFTVHVALAFLTAIGDKNRRAVLALEHMFAPVLDGAVSTLLGVLMLAGSEFDFIVRYFFAVLAILTILGVLNGLVLLPVLLSFFGPYPEVSPANGLNRLPTPSPEPPPSVVRFAMPPGHTHSGSDSSDSEYSSQTTVSGLSEELRHYEAQQGAGGPAHQVIVEATENPVFAHSTVVHPESRHHPPSNPRQQPHLDSGSLPPGRQGQQPRRDPPREGLWPPPYRPRRDAFEISTEGHSGPSNRARWGPRGARSHNPRNPASTAMGSSVPGYCQPITTVTASASVTVAVHPPPVPGPGRNPRGGLCPGYPETDHGLFEDPHVPFHVRCERRDSKVEVIELQDVECEERPRGSSSN
Take B1: the binding result in assay [2] is “binds”.

B2: His-TSPAN8 (protein, UniProt P19075 1-237)
chain: T1 sequence
Take B2: the binding entry in assay [3] is “binds”.
